The text below walks through data of publication PMC7806638.

Amino acid sequences for entries named in this document (tags omitted). A change or cut given only in a name is not applied to a line headed by its entry.
UniProt P06748: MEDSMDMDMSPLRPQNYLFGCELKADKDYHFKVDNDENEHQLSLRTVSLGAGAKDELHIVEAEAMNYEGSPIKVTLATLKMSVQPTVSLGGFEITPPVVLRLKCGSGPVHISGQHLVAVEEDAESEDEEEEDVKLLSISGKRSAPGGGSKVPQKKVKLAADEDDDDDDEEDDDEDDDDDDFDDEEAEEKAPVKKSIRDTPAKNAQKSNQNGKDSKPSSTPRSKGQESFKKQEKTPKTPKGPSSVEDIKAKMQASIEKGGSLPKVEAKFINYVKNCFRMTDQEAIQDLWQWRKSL

Results are given in words; binding and its absence hold for the method and conditions named. Binding calls can cover weak binding; strength is not graded here. For part of these data: In cells and extracts the contact can be indirect.

Assay [1] deals with mRFP1-labeled nucleophosmin with AML-associated mutation type A (human) (UniProt P06748). Nature of the assay: co-IP; RFP-Trap nanobeads on lysates of co-transfected 293T cells, 1 h at 4 °C, washed with 10 mM Tris pH 7.5, 150 mM NaCl, 0.5 mM EDTA, SDS-PAGE and blot; some samples from cells treated with 10 µM NSC348884 for 24 h.
Assay [2] addresses eGFP-labeled nucleophosmin with AML-associated mutation type A (human) (UniProt P06748). Nature of the assay: co-IP; GFP-Trap nanobeads on lysates of transfected 293T cells, 1 h at 4 °C, washed with 10 mM Tris pH 7.5, 150 mM NaCl, 0.5 mM EDTA, SDS-PAGE and blot; some samples from cells treated with 10 µM NSC348884 for 24 h.
Assay [3] shares this target. The experiment in a line: FRET or BRET; FLIM-FRET in living co-transfected cells, eGFP donor and mRFP1 acceptor, eGFP lifetime before and after mRFP1 photobleaching, 37 °C; some cells treated with 10 µM NSC348884 for 2 h.
For assay [4] the target is unchanged. The experiment in a line: relocalisation on co-expression (confocal live-cell imaging); 293T cells (with NSC348884 also HeLa) co-transfected with G_NPMmut and mRFP1-labeled NPM variants; red signal in the cytoplasm and green signal in nucleoli scored.

Consider “eGFP-labeled nucleophosmin with AML-associated mutation type A (from UniProt P06748)”, for which the binding result in assay [1] is on record as “binds”. Take “endogenous nucleophosmin (from UniProt P06748 1-294)”: the binding entry in assay [2] and in assay [1] was “binds” each time. As for “mRFP1-labeled nucleophosmin with AML-associated mutation type A (from UniProt P06748)”, the binding result in assay [3] and in assay [2] was “binds” each time. As for “mRFP1-labeled wild-type nucleophosmin (from UniProt P06748 1-294)”, the binding result in assay [4] is “binds”.
